Assay results published in patent US8409577.
Results are given in words; binding and its absence hold for the method and conditions named. Some results given as binding are weak or reduced against the parent protein; the word gives no strength.

Chains of the proteins cited; added tags and fusions are not shown. Lines headed by an entry give the natural chain unless they say otherwise; changes in a name come on top. Residues count along the entry.
UniProt P10747: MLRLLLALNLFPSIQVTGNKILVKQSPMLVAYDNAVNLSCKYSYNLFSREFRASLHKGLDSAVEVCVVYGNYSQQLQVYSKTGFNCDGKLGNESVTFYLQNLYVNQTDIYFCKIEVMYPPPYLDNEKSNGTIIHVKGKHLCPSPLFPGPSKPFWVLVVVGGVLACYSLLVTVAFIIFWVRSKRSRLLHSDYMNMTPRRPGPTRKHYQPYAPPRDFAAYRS
CD28 on CHO cells: residues 19-220 of P10747
CD28mIgG: residues 19-152 of P10747

Columns and labels:
CD28 on CHO cells [1] = target: CD28 on CHO cells (UniProt P10747); assay: flow cytometry, protein A purified protein at 5 ug/mL on CD28 CHO cells, FITC goat anti-human IgG 1:100
CD28 on CHO cells [2] = target: CD28 on CHO cells (UniProt P10747); assay: flow cytometry, CD28 CHO cells, protein A purified protein at 0.72 ug/mL, FITC goat anti-human IgG 1:100
CD28mIgG = CD28mIgG (UniProt P10747); assay: Western blot, non-reduced, probed with CD28-murine IgG and goat anti-mouse HRP
CD28 on CHO cells [3] = target: CD28 on CHO cells (UniProt P10747); assay: flow cytometry, COS supernatants on CD28 CHO cells, FITC goat anti-human IgG 1:100
CD28 on CHO cells [4] = target: CD28 on CHO cells (UniProt P10747); assay: flow cytometry, CD28 CHO cells, purified protein at 5 µg/ml

Measured: binding

B1: 2E12IgG-VHVL SMIP (Fc fusion, not shown: a dimerising Fc or GST)
chain: VQVQLKESGPGLVAPSQSLSITCTVSGFSLTGYGVNWVRQPPGKGLEWLGMIWGDGSTDYNSALKSRLSITKDNSKSQVFLKMNSLQTDDTARYYCARDGYSNFHYYVMDYWGQGTSVTVSSGGGGSGGGGSGGGGSGGGGSDIVLTQSPASLAVSLGQRATISCRASESVEYYVTSLMQWYQQKPGQPPKLLISAASNVESGVPARFSGSGSGTDFSLNIHPVEEDDIAMYFCQQSRKVPWTFGGGTKLEIKR
binds: all assays above
